Reference: patent US20090202520A1
Results are given in words; binding and its absence hold for the method and conditions named. Some entries that bind do so weakly or less than the wild type.

Protein sequences, listed by entry. Tags and fused reporters are not part of them. Lines headed by an entry give the natural chain unless they say otherwise; changes in a name come on top. Residues count along the entry.
UniProt P12314, residues 16-292: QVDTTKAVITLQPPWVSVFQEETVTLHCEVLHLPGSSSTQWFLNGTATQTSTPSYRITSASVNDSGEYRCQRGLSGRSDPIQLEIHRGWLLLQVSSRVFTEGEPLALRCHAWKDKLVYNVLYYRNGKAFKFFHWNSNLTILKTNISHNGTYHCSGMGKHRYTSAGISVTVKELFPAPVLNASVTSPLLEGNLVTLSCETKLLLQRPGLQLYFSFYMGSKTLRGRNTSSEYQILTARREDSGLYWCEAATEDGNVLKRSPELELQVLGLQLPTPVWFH
UniProt O75015, residues 17-200: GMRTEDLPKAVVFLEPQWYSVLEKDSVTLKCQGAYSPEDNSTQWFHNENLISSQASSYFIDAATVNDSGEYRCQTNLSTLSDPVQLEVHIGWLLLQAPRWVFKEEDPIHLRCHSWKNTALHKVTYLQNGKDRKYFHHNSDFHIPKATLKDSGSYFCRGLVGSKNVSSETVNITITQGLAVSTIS
UniProt P02743: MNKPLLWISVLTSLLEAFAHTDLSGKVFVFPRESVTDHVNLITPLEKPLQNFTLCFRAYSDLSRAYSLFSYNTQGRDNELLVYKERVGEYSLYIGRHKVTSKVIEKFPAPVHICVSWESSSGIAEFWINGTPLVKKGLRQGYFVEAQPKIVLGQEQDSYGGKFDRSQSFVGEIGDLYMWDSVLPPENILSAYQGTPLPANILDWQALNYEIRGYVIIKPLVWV
UniProt P12318: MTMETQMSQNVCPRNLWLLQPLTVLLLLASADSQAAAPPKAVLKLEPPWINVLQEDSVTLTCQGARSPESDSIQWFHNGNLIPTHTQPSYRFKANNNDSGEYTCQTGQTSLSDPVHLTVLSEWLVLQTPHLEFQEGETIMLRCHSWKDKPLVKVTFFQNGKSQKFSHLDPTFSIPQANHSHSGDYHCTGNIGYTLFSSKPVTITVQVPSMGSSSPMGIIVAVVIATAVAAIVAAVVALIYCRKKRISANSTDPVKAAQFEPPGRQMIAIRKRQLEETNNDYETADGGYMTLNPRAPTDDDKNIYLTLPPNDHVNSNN

Columns and labels:
[1] = target: soluble recombinant FcγRI (sFcγRI) (UniProt P12314); assay: SPR, comparison of SAP and CRP affinities
[2] = target: soluble recombinant FcγRI (sFcγRI) (UniProt P12314); assay: SPR (Biacore X100), SAP on CM5 chip
[3] = target: soluble recombinant FcγRIIIB (sFcγRIIIB) (UniProt O75015); assay: SPR sensorgram, five receptor concentrations
[4] = target: soluble recombinant FcγRIIIB (sFcγRIIIB) (UniProt O75015); assay: SPR (Biacore X100), SAP on CM5 chip
[5] = target: T1, C-reactive protein (CRP) (human) (UniProt P02741); assay: SPR (Biacore X100), multi-cycle kinetics; CRP captured via PC-KLH on CM5 chip and briefly immobilized, sFcγRI flowed for 120 sec
T1 sequence (looked up): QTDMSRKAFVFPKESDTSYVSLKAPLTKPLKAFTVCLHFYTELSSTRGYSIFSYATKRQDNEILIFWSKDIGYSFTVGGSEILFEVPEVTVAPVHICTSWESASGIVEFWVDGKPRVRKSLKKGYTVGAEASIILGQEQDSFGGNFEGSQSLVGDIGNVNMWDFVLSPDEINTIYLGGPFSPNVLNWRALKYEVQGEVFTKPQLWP

[6] = target: T1, C-reactive protein (CRP) (human); assay: SPR, rank order of affinities
[7] = target: serum amyloid P (SAP) (human) (UniProt P02743); assay: SPR, rank order of affinities
[8] = target: T1, C-reactive protein (CRP) (human); assay: SPR steady-state plot of Req against FcγRI concentration; CRP captured via PC-KLH on CM5 chip
[9] = target: T1, C-reactive protein (CRP) (human); assay: SPR (Biacore X100), CRP captured on PC-KLH on CM5 chip
[10] = target: T1, C-reactive protein (CRP) (human); assay: SPR steady-state plot of Req against FcγRIIIB concentration; CRP captured via PC-KLH on CM5 chip
[11] = target: T1, C-reactive protein (CRP) (human); assay: SPR (Biacore X100), multi-cycle kinetics; CRP captured via PC-KLH on CM5 chip and briefly immobilized, sFcγRIIIB flowed for 90 sec

With “serum amyloid P (SAP) (from UniProt P02743 20-223) (ligand)” the binding [1] was “binds” and the binding [2] was “binds”.
For “serum amyloid P (SAP) (from UniProt P02743 20-223) (ligand; other documents disagree on this pair)”, the binding [3] was “binds” and the binding [4] was “binds”.
“soluble recombinant FcγRI (sFcγRI) (from UniProt P12314 16-292) (receptor)” was tested, and the binding [5] was “binds”, the binding [6] was “binds” and the binding [7] was “binds”. The binding [8] was “binds” and the binding [9] was “binds”.
With “soluble recombinant FcγRIIA (H131 variant) (from UniProt P12318 36-217) (receptor)” the binding [6] was “binds” and the binding [9] was “binds”.
With “soluble recombinant FcγRIIA (R131 variant) (from UniProt P12318 36-217) (receptor)” the binding [6] was “binds” and the binding [9] was “binds”.
“soluble recombinant FcγRIIIB (sFcγRIIIB) (from UniProt O75015 17-200) (receptor)” was tested, and the binding [6] was “binds”, the binding [9] was “binds” and the binding [10] was “binds”. The binding [11] was “binds”.
